Test results as given in patent US20200276166A1.
These are yes or no findings as the source states them, for the method shown. Binding seen in cells or lysates may run through a third protein. Some entries that bind do so weakly or less than the wild type.

Protein sequences, listed by entry. Tags and fused reporters are not part of them. Residues count along the entry.
UniProt P02769, residues 25-607: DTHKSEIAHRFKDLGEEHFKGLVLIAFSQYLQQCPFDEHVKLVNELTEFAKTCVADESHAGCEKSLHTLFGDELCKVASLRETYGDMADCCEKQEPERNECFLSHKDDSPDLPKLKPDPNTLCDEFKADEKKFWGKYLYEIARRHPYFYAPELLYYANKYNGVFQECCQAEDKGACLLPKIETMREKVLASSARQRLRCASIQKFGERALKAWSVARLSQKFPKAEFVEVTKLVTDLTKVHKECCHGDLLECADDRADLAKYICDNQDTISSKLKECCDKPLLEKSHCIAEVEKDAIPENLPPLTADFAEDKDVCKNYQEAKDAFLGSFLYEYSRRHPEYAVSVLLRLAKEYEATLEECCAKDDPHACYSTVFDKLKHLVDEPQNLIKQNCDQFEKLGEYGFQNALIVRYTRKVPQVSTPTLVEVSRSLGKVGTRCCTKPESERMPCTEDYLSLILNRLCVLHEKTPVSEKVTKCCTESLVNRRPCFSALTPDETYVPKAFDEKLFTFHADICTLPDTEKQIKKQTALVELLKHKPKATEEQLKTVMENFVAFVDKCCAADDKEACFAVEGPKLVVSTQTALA

Assays:
[1] = target: T1, TGF-βRII (rat) (UniProt P38438); test: co-immunoprecipitation (restated)
T1 sequence (looked up): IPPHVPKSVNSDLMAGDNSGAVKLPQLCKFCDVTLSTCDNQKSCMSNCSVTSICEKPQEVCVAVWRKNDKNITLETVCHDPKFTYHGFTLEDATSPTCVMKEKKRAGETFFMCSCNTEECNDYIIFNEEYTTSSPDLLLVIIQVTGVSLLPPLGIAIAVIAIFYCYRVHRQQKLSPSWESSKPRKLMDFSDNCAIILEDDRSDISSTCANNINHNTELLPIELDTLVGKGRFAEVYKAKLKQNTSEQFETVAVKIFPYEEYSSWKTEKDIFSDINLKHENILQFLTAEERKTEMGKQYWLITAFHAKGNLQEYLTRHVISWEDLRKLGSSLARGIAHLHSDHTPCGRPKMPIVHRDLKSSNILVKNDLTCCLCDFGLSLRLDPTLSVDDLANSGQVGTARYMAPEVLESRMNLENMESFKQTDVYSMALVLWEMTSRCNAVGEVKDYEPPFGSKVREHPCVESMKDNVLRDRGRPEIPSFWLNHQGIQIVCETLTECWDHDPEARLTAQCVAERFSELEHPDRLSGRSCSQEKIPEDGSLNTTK

[2] = target: T1, TGF-βRII (rat); test: co-immunoprecipitation from rat cortical lysate with anti-albumin antibody, Western blot for TGF-βRII

## bovine serum albumin (from UniProt P02769 25-607)
[1]
  binding: binds
[2]
  binding: binds
